Laboratory results reported in PubChem BioAssay AID1347076 (National Center for Advancing Translational Sciences (NCATS), 2019).
The whole screen tested about 400,000 compounds, of which about 13,000 (3.2%) were called active. The inconclusive results got no clear call from the source; some entries with a clear call stand among them for comparison. The call rests on the fitted dose curve; in most records, active means well fitted cell-killing curve with a large enough effect; inconclusive means small, poorly fitted or top-dose-only effect, or effect the other way; inactive means flat fitted curve, though single readings scatter. Potencies of inconclusive entries are doubtful fits and often do not repeat.

assay: qHTS assay for MDR1-selective chemotherapeutics: Primary screen using the drug-selected MDR subline cells KB-V1; details: KB-V1 MDR cells viability, CellTiter-Glo, 72 h; series mostly up to 46.1 µM; further: nearly all actives have a fitted effect of over 60% in size
Method in brief: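 Potencies derive from concentration-effect curves fitted to normalized luminescence (CellTiter-Glo) of KB-V1 cells treated for 72 h at 37 degrees C in phenol-red-free DMEM containing 10% FBS.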
Potency means the concentration at half of the fitted maximal effect.

Q: For CCN(CCCNS(=O)(=O)c1ccc2c(c1)CCN2C(C)=O)c1cccc(C)c1, which Potency is on record?
A: inconclusive: 9.2 µM [cytotoxic, partial curve, poor fit]

Q: For Cc1cc2c(=O)n(C)c(SCC(=O)Nc3ccccc3)nc2s1, which Potency is on record?
A: inconclusive: 10.3 µM [cytotoxic, partial curve]

Q: Which Potency does the source give for Cc1cccn2c(=O)c(C=O)c(N3CCCCCC3)nc12 here?
A: active: 14.6 µM

Q: With Cc1ccc(Cl)cc1NC(=O)C(=O)NCC(c1cccnc1)N1CCc2ccccc21 (stereo not drawn) as the compound, how does the Potency read?
A: inconclusive: 2.59 µM [cytotoxic, full curve, poor fit]

Q: For COc1ccc(NC(=O)CCS(=O)(=O)c2ccc(OC)cc2)cc1, which Potency is on record?
A: inconclusive: 14.6 µM [cytotoxic, partial curve]

Q: With O=C(CCS(=O)(=O)c1cccc2nsnc12)Nc1ccc(F)cc1 as the compound, how does the Potency read?
A: inactive

Q: Which Potency does the source give for COc1ccc2oc(-c3ccc(C)c(NC(=O)COc4cc(C)cc(C)c4)c3)nc2c1 here?
A: inactive

Q: With CCC(c1nnnn1Cc1ccco1)N(CCc1ccccc1)Cc1cc2cc(C)ccc2[nH]c1=O (stereo not drawn) as the compound, how does the Potency read?
A: inconclusive: 23.1 µM [cytotoxic, single point]

Q: With O=C(Nc1ccc(Cl)cn1)C1CCCN(c2ncnc3c2nc2n3CCCCC2)C1 (stereo not drawn) as the compound, how does the Potency read?
A: inconclusive: 14.6 µM [cytotoxic, partial curve, poor fit]

Q: For CSc1ccc(CN(C)CC(=O)Nc2c(F)cccc2F)cc1, which Potency is on record?
A: inconclusive: 16.4 µM [cytotoxic, partial curve]

Q: For O=C(Nc1ccn(-c2ccccc2)n1)c1ccc(Cl)cc1, which Potency is on record?
A: active: 18.4 µM

Q: With CCC1Sc2ccc(S(=O)(=O)CCC(=O)Nc3c(Cl)cc(OC)cc3OC)cc2NC1=O (stereo not drawn) as the compound, how does the Potency read?
A: inactive

Q: For COc1ccc(S(=O)(=O)NCCc2c(C)nn(C)c2Oc2ccccc2)cc1, which Potency is on record?
A: inconclusive: 23.1 µM [cytotoxic, single point]

Q: With O=C1CN(c2ccc(Cl)cc2)C(=O)CN1NC(=S)Nc1ccc(Cl)cc1 as the compound, how does the Potency read?
A: inconclusive: 29.1 µM [cytotoxic, single point]

Q: For CCCOC(=O)c1ccc(Oc2cn[nH]c2-c2ccc(OCC)cc2O)cc1, which Potency is on record?
A: inconclusive: 18.4 µM [cytotoxic, partial curve]

Q: For Fc1ccc(NC(=S)Nc2ccccc2N2CCOCC2)cc1Cl, which Potency is on record?
A: inconclusive: 29.1 µM [cytotoxic, single point]

Q: With C[C@]12c3[nH]c4cc(-c5ccco5)ccc4c3CCN1C(=O)[C@@H](CC(=O)NCC13CC4CC(CC(C4)C1)C3)C[C@@H]2C(=O)N1CCCCC1 as the compound, how does the Potency read?
A: inconclusive: 29.1 µM [cytotoxic, single point]

Q: With COc1ccc(/C=N/Nc2c(Cl)cc(Cl)cc2Cl)cc1CN1CCOCC1 as the compound, how does the Potency read?
A: inactive
